Laboratory results: patent US8932617B2, “Methods for treating or preventing restenosis and other vascular proliferative disorders” (priority 2004, dated 2015)
Some of these results come from one statement about several compounds together. At least one compound was matched to its structure with a doubt left.

Tested on: Rat vascular smooth muscle cells
Assay: SMC proliferation, cell count by flow cytometry
Type: cell-based
Conditions: ratio of IC50 vs HU
Protocol: SMC were plated on 6 well dishes at a density of 2×10^5 cells per well. Cells were then treated with Didox (0-200 μM), Imidate (0-200 μM) or HU (0-1000 μM) and incubated for 24 hours. Following the 24 hour incubation period, the cells were trypsinized and collected in 15 mL centrifuge tubes. The cells were then centrifuged 5 minutes at 800×g. The supernatant was discarded and the pellet was resuspended in 5 ml PBS. The cells were centrifuged 6 minutes at 200×g. The supernatant was removed and the pellet was then thoroughly resuspended in 0.5 ml PBS. The cell suspension was transferred into tubes containing 70% ethanol, keeping the cells in fixative for greater than about 2 hours. The ethanol suspended cells were centrifuged 5 minutes at 200×g, and the ethanol was decanted. The cell pellet was resuspended in 5 ml PBS and after one minute was centrifuged 5 min at 200×g. […]
Didox, Imidate, and to a much lesser degree, HU, are known to be ribonucleotide reductase inhibitors (Elford, (1968) Biochem Biophys Res Commun 33:129-135; Elford et al., (1970) J Biol Chem 245:5228-5233; Elford et al., (1979) Cancer Res 39:844-851). ribonucleotide reductase catalyzes the reductive conversion of ribonucleotides to deoxynucleotides. […] Therefore, the IC50 of each compound on inhibition of smooth muscle cell growth was determined. […]

Row | SMILES | times more potent than HU at arresting cell division in vascular smooth muscle cells
1 | O=C(NO)c1ccc(O)c(O)c1 [Didox, N-3,4-trihydroxybenzamide] | 3-4 times
2 | CCOC(=N)c1cc(O)c(O)c(O)c1.Cl [Imidate, ethyl-3,4,5-trihydroxybenzenecarboximidate-HCl] | 3-4 times
